{"source": "PubChem BioAssay AID1224854", "about": "(National Center for Advancing Translational Sciences (NCATS), 2016)", "experiment": "Cell viability assay for measurement of the protective activity of small molecules against cell death caused by Zika virus infection in human astrocytoma cells", "summary_of_the_method": "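Percent inhibition of Zika-induced cell death derived from ATP-content luminescence after 72 h at 37 C. Compounds were added to SNB-19 cells 1 h before virus at 2 FFU/cell.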", "note": "Inconclusive results, whose numbers are uncertain, are shown with a selection of clear calls. Potencies beside an inconclusive call are fits to weak or partial responses and may not hold up. The source made the active and inactive calls. Calls follow the shape of the dose curve; as a rule, active = well fitted activation curve with a large enough effect; inconclusive = small, poorly fitted or top-dose-only effect; inactive = flat fitted curve, though single readings scatter."}
{"smiles": "CC[C@@]1(O)C[C@H](O[C@H]2C[C@H](N(C)C)[C@H](O[C@H]3C[C@H](O)[C@H](O[C@H]4CCC(=O)[C@H](C)O4)[C@H](C)O3)[C@H](C)O2)c2c(cc3c(c2O)C(=O)c2c(O)cccc2C3=O)[C@@H]1C(=O)OC", "values": [{"measurement": "Potency", "result": "inconclusive: 17.3 µM [activator, single point]"}]}
{"smiles": "CC(=O)Oc1cccc2c1C(=O)c1c(OC(C)=O)cc(C(=O)O)cc1C2=O", "values": [{"measurement": "Potency", "result": "inactive"}]}
{"smiles": "OCc1ccc(-c2ccc(-c3ccc(CO)s3)o2)s1", "values": [{"measurement": "Potency", "result": "inactive"}]}
{"smiles": "Nc1cc(C(F)(F)F)ccc1S", "values": [{"measurement": "Potency", "result": "inconclusive: 0.69 µM [activator, partial curve]"}]}
{"smiles": "CCCCCNC(=O)N1CCC(CN(Cc2ccc(Cl)cc2)Cc2ccc([N+](=O)[O-])s2)C1", "note": "(configuration not stated)", "values": [{"measurement": "Potency", "result": "inconclusive: 27.5 µM [activator, single point]"}]}
{"smiles": "Clc1ccccc1-c1nc(-c2ccncc2)no1", "values": [{"measurement": "Potency", "result": "inactive"}]}
{"smiles": "COc1cc(NC(C)CCCN)c2ncccc2c1", "note": "(configuration not stated)", "values": [{"measurement": "Potency", "result": "active: 17.3 µM"}]}
{"smiles": "CC(C)(C)COc1ccc(-n2cc(C(=O)O)cn2)cc1C#N", "values": [{"measurement": "Potency", "result": "inconclusive: 5.01 µM [activator, partial curve]"}]}
{"smiles": "NC1CCC(Nc2nc(Nc3ccc(C(=O)N4CCCCC4)cc3)c3ncn(-c4cccc(F)c4)c3n2)CC1", "note": "(configuration not stated)", "values": [{"measurement": "Potency", "result": "inconclusive: 3.88 µM [activator, partial curve, poor fit]"}]}
{"smiles": "N#C/C(=C\\c1ccc(O)c(O)c1)C(=O)Nc1ccccc1", "values": [{"measurement": "Potency", "result": "inconclusive: 30.8 µM [activator, single point]"}]}
{"smiles": "COc1cccc2c1C(=O)c1c(O)c3c(c(O)c1C2=O)C[C@@](O)(C(=O)CO)C[C@@H]3O[C@H]1C[C@H](N)[C@H](O[C@@H]2CCCCO2)[C@H](C)O1", "values": [{"measurement": "Potency", "result": "inactive"}]}
{"smiles": "O=C(Oc1ccccc1)c1cccc(C(=O)Oc2ccccc2)c1", "values": [{"measurement": "Potency", "result": "inactive"}]}
{"smiles": "CCCC(=O)OC[C@@H](OC(=O)CCC)[C@@H](OC(=O)CCC)[C@H](Cn1c2nc(=O)[nH]c(=O)c-2nc2cc(C)c(C)cc21)OC(=O)CCC", "values": [{"measurement": "Potency", "result": "inactive"}]}
{"smiles": "O=C(/C=C/c1ccccc1)NCCO", "values": [{"measurement": "Potency", "result": "inconclusive: 3.88 µM [activator, full curve, poor fit]"}]}
{"smiles": "CNC(=O)c1ccccc1Sc1ccc2c(/C=C/c3ccccn3)n[nH]c2c1", "values": [{"measurement": "Potency", "result": "inconclusive: 0.218 µM [activator, partial curve, poor fit]"}]}
{"smiles": "CC(C)OC(=O)CCCC=CC[C@@H]1[C@H](C=C[C@@H](O)COc2cccc(C(F)(F)F)c2)[C@H](O)C[C@@H]1O", "values": [{"measurement": "Potency", "result": "inconclusive: 0.615 µM [activator, partial curve, poor fit]"}]}
{"smiles": "CN(C)c1ccc(/C=C2\\C(=O)Nc3ccccc32)cc1", "values": [{"measurement": "Potency", "result": "inconclusive: 0.123 µM [activator, full curve]"}]}
{"smiles": "C[C@@H](N)c1ccc(C(=O)Nc2ccnc3[nH]ccc23)cc1", "values": [{"measurement": "Potency", "result": "inconclusive: 0.774 µM [activator, full curve]"}]}
{"smiles": "CN(C)c1ccc(N=NS(=O)(=O)O)cc1", "values": [{"measurement": "Potency", "result": "inconclusive: 15.8 µM [activator, partial curve, poor fit]"}]}
{"smiles": "CCC(C)SSc1ncc[nH]1", "note": "(configuration not stated)", "values": [{"measurement": "Potency", "result": "active: 24.5 µM"}]}
{"smiles": "COc1ccc(CC2=NN3C([C@@H](CCc4ccccc4)[C@@H](C)O)=NC(C)C3C(=O)N2)cc1OC", "note": "(some centres not stated)", "values": [{"measurement": "Potency", "result": "inconclusive: 0.774 µM [activator, partial curve]"}]}
{"smiles": "CC(C(=O)O)c1ccc(C(=O)c2ccccc2)s1", "note": "(configuration not stated)", "values": [{"measurement": "Potency", "result": "inactive"}]}
